The values below come from article PMC11580471.

The chains behind the UniProt entries cited, without tags or fusion partners. Residues count along the entry.
UniProt P05067, residues 18-770: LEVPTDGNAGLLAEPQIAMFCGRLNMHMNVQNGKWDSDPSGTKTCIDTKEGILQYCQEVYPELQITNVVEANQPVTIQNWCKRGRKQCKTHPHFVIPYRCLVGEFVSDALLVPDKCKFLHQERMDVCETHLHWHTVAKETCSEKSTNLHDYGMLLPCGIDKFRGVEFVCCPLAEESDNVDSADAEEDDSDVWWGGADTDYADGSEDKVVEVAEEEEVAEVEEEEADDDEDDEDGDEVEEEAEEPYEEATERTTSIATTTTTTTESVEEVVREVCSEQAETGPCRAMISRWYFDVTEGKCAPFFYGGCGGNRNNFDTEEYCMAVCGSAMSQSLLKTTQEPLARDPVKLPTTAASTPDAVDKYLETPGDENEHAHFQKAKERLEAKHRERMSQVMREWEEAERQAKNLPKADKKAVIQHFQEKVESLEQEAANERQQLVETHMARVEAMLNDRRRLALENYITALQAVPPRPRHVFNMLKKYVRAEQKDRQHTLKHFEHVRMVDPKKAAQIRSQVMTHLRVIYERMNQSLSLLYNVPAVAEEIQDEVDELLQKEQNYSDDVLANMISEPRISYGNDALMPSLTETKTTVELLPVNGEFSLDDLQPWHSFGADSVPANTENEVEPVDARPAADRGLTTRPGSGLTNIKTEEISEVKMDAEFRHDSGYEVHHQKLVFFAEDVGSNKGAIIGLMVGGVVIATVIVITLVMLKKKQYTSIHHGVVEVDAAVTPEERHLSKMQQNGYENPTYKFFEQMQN

The target in this test is T1, F-box and leucine-rich repeat protein 16 (Flag-FBXL16) (human) (UniProt Q8N461).
T1 sequence: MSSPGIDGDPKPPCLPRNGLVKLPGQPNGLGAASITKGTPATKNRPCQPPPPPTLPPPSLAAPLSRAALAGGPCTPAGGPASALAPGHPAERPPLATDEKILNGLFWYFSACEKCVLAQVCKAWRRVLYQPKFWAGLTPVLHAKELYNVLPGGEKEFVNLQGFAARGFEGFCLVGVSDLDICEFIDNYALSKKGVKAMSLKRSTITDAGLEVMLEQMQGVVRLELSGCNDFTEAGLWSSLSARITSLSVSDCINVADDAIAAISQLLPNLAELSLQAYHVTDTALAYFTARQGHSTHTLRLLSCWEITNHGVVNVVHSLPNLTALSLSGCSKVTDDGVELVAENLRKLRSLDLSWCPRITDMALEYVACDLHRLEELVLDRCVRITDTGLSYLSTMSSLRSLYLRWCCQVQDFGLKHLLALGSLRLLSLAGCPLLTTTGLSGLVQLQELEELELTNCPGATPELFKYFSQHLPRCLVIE
Briefly: co-IP; Flag-FBXL16 and Myc-APP vectors transfected into HEK293 cells, 24 h; RIPA lysis; lysate incubated with anti-Flag or anti-Myc antibodies overnight at 4 °C, magnetic beads, washed three times; Western blot. A general note: In western blotting, separated proteins are transferred to a membrane and probed.

These are yes or no findings as the source states them, for the method shown. Binding seen in cells or lysates may run through a third protein. Some entries that bind do so weakly or less than the wild type. Where a sequence is shown, tags or fusion partners need not be part of it.

With “amyloid precursor protein (Myc-APP) (from UniProt P05067 18-770)”, the binding result is recorded as “binds”.
